This is an account of results in PMC5354769.

These are yes or no findings as the source states them, for the method shown. Binding seen in cells or lysates may run through a third protein. Some entries that bind do so weakly or less than the wild type.

The target in the assay is T1, Neogenin-1 (human (endogenous in SK-N-SH)) (UniProt Q92859).
T1 sequence: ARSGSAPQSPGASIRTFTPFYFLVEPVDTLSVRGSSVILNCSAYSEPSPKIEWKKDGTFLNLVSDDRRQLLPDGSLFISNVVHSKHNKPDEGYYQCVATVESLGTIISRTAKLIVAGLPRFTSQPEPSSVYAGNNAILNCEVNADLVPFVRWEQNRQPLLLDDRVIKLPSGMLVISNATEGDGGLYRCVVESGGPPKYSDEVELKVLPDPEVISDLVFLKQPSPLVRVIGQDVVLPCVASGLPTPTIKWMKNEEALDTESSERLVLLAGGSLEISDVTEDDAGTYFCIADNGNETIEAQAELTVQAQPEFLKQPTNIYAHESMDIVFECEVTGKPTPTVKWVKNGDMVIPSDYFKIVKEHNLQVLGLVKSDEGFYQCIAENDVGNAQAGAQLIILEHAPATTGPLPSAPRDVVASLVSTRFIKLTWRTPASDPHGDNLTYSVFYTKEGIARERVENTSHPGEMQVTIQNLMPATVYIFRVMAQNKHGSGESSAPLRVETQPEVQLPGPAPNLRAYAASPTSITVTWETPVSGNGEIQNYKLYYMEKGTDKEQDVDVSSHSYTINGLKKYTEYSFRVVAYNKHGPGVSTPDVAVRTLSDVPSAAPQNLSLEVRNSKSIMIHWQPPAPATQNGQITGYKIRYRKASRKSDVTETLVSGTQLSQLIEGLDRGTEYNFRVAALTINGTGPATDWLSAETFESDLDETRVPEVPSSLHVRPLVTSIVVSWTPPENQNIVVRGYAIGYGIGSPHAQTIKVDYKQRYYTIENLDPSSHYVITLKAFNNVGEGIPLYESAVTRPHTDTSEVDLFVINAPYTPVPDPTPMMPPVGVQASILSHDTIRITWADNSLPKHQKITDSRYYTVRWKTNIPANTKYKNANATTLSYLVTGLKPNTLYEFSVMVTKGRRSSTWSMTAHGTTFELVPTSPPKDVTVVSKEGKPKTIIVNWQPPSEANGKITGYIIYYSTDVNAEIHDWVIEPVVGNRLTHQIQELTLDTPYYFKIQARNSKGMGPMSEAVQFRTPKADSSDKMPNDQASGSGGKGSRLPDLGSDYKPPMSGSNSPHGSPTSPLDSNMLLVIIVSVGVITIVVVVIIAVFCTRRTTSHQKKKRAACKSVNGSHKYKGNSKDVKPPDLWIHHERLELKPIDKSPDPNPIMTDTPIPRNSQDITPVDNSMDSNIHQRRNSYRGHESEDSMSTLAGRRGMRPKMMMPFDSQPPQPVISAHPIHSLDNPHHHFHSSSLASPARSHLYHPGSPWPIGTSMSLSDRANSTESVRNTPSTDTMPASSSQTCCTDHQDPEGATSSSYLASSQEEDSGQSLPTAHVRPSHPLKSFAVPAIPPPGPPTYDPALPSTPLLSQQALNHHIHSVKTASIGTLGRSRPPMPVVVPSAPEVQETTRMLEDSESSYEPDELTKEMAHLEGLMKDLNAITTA
Description: co-IP; SK-N-SH cells incubated 1 h with human recombinant Netrin-4 (200 ng/ml); lysis in 20 mM Tris pH 7.4, 150 mM NaCl, 1% NP-40; 1000 ug total protein precipitated 1 h with protein A/G bead-immobilised antibodies against NEO1 or NTN4; Western blot against NEO1 and NTN4; only the binder purified.

B1: Netrin-4 (ligand, UniProt Q9HB63 19-628)
chain: GLSGVAGVSSRCEKACNPRMGNLALGRKLWADTTCGQNATELYCFYSENTDLTCRQPKCDKCNAAYPHLAHLPSAMADSSFRFPRTWWQSAEDVHREKIQLDLEAEFYFTHLIVMFKSPRPAAMVLDRSQDFGKTWKPYKYFATNCSATFGLEDDVVKKGAICTSKYSSPFPCTGGEVIFKALSPPYDTENPYSAKVQEQLKITNLRVQLLKRQSCPCQRNDLNEEPQHFTHYAIYDFIVKGSCFCNGHADQCIPVHGFRPVKAPGTFHMVHGKCMCKHNTAGSHCQHCAPLYNDRPWEAADGKTGAPNECRTCKCNGHADTCHFDVNVWEASGNRSGGVCDDCQHNTEGQYCQRCKPGFYRDLRRPFSAPDACKPCSCHPVGSAVLPANSVTFCDPSNGDCPCKPGVAGRRCDRCMVGYWGFGDYGCRPCDCAGSCDPITGDCISSHTDIDWYHEVPDFRPVHNKSEPAWEWEDAQGFSALLHSGKCECKEQTLGNAKAFCGMKYSYVLKIKILSAHDKGTHVEVNVKIKKVLKSTKLKIFRGKRTLYPESWTDRGCTCPILNPGLEYLVAGHEDIRTGKLIVNMKSFVQHWKPSLGRKVMDILKRECK
With B1, the binding result is recorded as “binds”.
